Measured values from US10653138B2, “Composition for attracting bed bugs” (London School of Hygiene & Tropical Medicine, priority 2015, dated 2020).
Some results were stated once for a whole list of compounds, not compound by compound. At least one read-out could not be matched to a standard name with certainty.

System: bed bug antennae
Test: Coupled gas chromatography-electroantennography (GC-EAG) of volatile extract from bed bug-exposed paper
Parameters: species or system Cimex lectularius
Conditions: Example 5 summary
Text: Experimental insects, unless otherwise stated, were mated males and females of C. lectularius that had been fed 7 to 14 days previously on heparinised sheep blood. The electrodes used to make recordings were Ag/AgCl wires (diameter 0.37 mm) inserted into glass pipettes, made from borosilicate glass capillaries (outer diameter 2.0 mm; inner diameter 1.16 mm). The glass pipettes were filled with Ringers solution (7.55 g NaCl, 0.64 g KCl, 0.22 g CaCl2, 1.73 g MgCl2 g, 0.86 g NaHCO3 and 0.61 g Na3PO4 L^−1 water). The bed bug was then chilled on ice for one minute before dissection. […]
The GC used was a HP-680N, containing a HP-1 column (30 m×0.32 mm; film thickness, 0.52 μm) with a COC injector, hydrogen carrier gas and a FID. […] Signals were analysed using the computer-based software package, EAD 2000 (Syntech®, The Netherlands). […] A solution of n-alkanes (C7-C25, 1 μL of 100 ng μL^−1) in hexane was also analysed to calculate the retention indices (RI) of any EAG-active peaks for comparison with GC and coupled GC-MS traces (Equation 1).
Electroantennographic (EAG) responses from the coupled gas chromatography-electroantennographic (GC-EAG) analysis of the volatile extract collected using air entrainment were determined by visual appearance. […]

CCCCCCCC=O (single isomer, unassigned) [Octanal, octanal]
number of EAG responses: more than 15 responses
